From patent publication US20230416316A1, “ADP-RIBOSE BINDING PEPTIDES WITH ANTI-CANCER ACTIVITY AND USE THEREOF” (PearlsInMires Co., Ltd., priority 2021, published 2023)
Part of at least one peptide drawing is inferred or uncertain, most often the ends. Ends that are not written are not given here.

What was measured:
Caki-1 cells [1] = assay: Cell viability (MTT, photomicrographs) in Caki-1 cells; assay type: cell-based; settings: 16 μM peptide, 24 hours
Protocol: After culturing 3×10^3 Caki-1 cells in a 96-well plate for 24 hours under conditions of 37° C. and 5% CO2, the cells were either untreated or treated with the peptides of Examples 1 to 28 at a concentration of 16 μM, respectively. Then, the cells were cultured for 24 hours under conditions of 37° C. and 5% CO2, and 10 μl of 3-(4,5-dimethylthiazol-2-yl)-2,5-diphenyltetrazolium bromide reagent was added to each well, followed by reaction for 1 hour. After the reaction was completed, the reagent was removed, 200 μl of dimethyl sulfoxide was added to each well, and the absorbance was measured to confirm cell viability.

Caki-1 cells [2] = assay: ADP-ribose level by ELISA in Caki-1 cells; assay type: cell-based; settings: 0.2-32 μM peptide, 24 hours
Protocol: The peptides of Examples 1 to 28 of the present disclosure are designed to inhibit the action of poly ADP-ribose degradation enzyme. In Experimental Example 1, it was confirmed through cell experiments whether poly ADP-ribose was inhibited from being degraded by each of the peptides and accumulated in cancer cells.
5×10^5 Caki-1 cells were divided into a group not treated with the peptide of Example and a group treated with 0.2, 1, 2, 4, 8, 16, and 32 μM of the peptide of Example 7 (SEQ ID NO: 7), and cultured for 24 hours under conditions of 37° C. and 5% CO2 in McCoy's 5A medium supplemented with 10% FBS, 100 units/ml penicillin, and 100 μg/ml streptomycin. The medium of the cultured cells was removed, and the samples were treated with RIPA buffer and 1% SDS. The prepared supernatant was used for ELISA analysis to detect and analyze ADP-ribose.

## FSYKIDFAEMKQMNLTTGKQRLIKR [Example 7]
Caki-1 cells [1]
  cancer cell growth and survival: inhibited from growing and killed
Caki-1 cells [2]
  amount of increase in ADP-ribose (fold change) compared to the control group: significant increase in the amount of ADP-ribose in a concentration-dependent manner
